The supplement of paper PMC5949888
Most values lie at the floor of the assay. Slopes are relative: functional sequences can read slightly below zero.

The substances below were run on Saccharomyces cerevisiae PS128 hsf1 delta, HSF1(1-493) fusion (assay: growth estimate (transactivation domain function in HSF1 fusion, heat-shock survival) (a.u. (slope of normalised read count over time)); higher = stronger growth at 37°C, i.e. more transactivation activity). Conditions: library: random library.

Q: For TGILNVRRQYSKCPTYHLER, which growth estimate is on record?
A: < -0.25

Q: With TGIPRWEQHASGRSDRAPAC as the substance, how does the growth estimate read?
A: < -0.25

Q: For TGIVEIGVQYGWLFGSRL, which growth estimate is on record?
A: < -0.25

Q: With TGKASEQLGDGDYIWPKSGV as the substance, how does the growth estimate read?
A: < -0.25

Q: Which growth estimate does the source give for TGKDTRRLNPY here?
A: < -0.25

Q: TGLAFFLGCKTTL was tested. Which growth estimate did it give?
A: < -0.25

Q: For TGLDPGFGLRGWERGLAL, which growth estimate is on record?
A: < -0.25

Q: Which growth estimate does the source give for TGLLYCRGTMVCL here?
A: < -0.25

Q: TGLPRDG was tested. Which growth estimate did it give?
A: < -0.25

Q: TGLSISGLIL was tested. Which growth estimate did it give?
A: < -0.25

Q: Which growth estimate does the source give for TGLVGFLK here?
A: < -0.25

Q: Which growth estimate does the source give for TGMIFMVFVKHCINMSDRGP here?
A: -0.248

Q: Which growth estimate does the source give for TGNA here?
A: < -0.25

Q: For TGNCESVGTVVSILAQGH, which growth estimate is on record?
A: < -0.25

Q: Which growth estimate does the source give for TGNCLPKIFMDCKLWVAKRA here?
A: < -0.25

Q: TGNLDSFSPSGLIDLH was tested. Which growth estimate did it give?
A: < -0.25

Q: Which growth estimate does the source give for TGP here?
A: < -0.25

Q: Which growth estimate does the source give for TGPSNDKCACLPLSLQPFGL here?
A: < -0.25

Q: Which growth estimate does the source give for TGQ here?
A: -0.243

Q: Which growth estimate does the source give for TGRCNRPKSLDREFHSQC here?
A: < -0.25

Q: For TGRDEGGRDRIRLFRFNV, which growth estimate is on record?
A: < -0.25

Q: How did the growth estimate turn out when TGRICHNVHSKHTEINNLIS was run?
A: < -0.25

Q: Which growth estimate does the source give for TGRRGRNPCVQGKYPRST here?
A: < -0.25

Q: How did the growth estimate turn out when TGRSPQGEGWPEKIGRGSQS was run?
A: < -0.25

Q: TGRSPSA was tested. Which growth estimate did it give?
A: < -0.25

Q: With TGSEMDNFVDASISRARWRV as the substance, how does the growth estimate read?
A: < -0.25

Q: For TGTADSQPHVR, which growth estimate is on record?
A: < -0.25

Q: For TGTAGISAETS, which growth estimate is on record?
A: < -0.25

Q: For TGTLGSQRLNADGLYFRSHL, which growth estimate is on record?
A: < -0.25

Q: How did the growth estimate turn out when TGTLRPRP was run?
A: < -0.25

Q: With TGVCV as the substance, how does the growth estimate read?
A: < -0.25

Q: How did the growth estimate turn out when TGVQRRQISQRGILGVWCG was run?
A: < -0.25

Q: Which growth estimate does the source give for TGVRRGMFTGSLSHRYSRSR here?
A: < -0.25

Q: Which growth estimate does the source give for TGVSREIEG here?
A: < -0.25

Q: With THDLTRKDSQEAF as the substance, how does the growth estimate read?
A: < -0.25

Q: THF was tested. Which growth estimate did it give?
A: < -0.25

Q: For THHHVR, which growth estimate is on record?
A: < -0.25

Q: Which growth estimate does the source give for THIGKYE here?
A: < -0.25

Q: Which growth estimate does the source give for THLKSQSTRGMLLHFSPGFT here?
A: < -0.25

Q: For THLVA, which growth estimate is on record?
A: < -0.25

Q: With THPGRSFRGFNYALPAGLR as the substance, how does the growth estimate read?
A: < -0.25

Q: THRGPVRMIRGRPKKAS was tested. Which growth estimate did it give?
A: -0.248

Q: How did the growth estimate turn out when THRRHKPSIRNKRRSSTSTG was run?
A: < -0.25

Q: With THSAW as the substance, how does the growth estimate read?
A: < -0.25

Q: TIARVRHEYRTLRFGGGPPR was tested. Which growth estimate did it give?
A: < -0.25

Q: With TICARARAYRKGSFEPIWRR as the substance, how does the growth estimate read?
A: < -0.25

Q: How did the growth estimate turn out when TICSFAVKTAPIALALS was run?
A: < -0.25

Q: For TICTVYLKPSIKEVGIERVK, which growth estimate is on record?
A: < -0.25

Q: How did the growth estimate turn out when TICVGWLAAHCV was run?
A: < -0.25

Q: Which growth estimate does the source give for TIEGTLLGLYGDRRVKADPL here?
A: < -0.25

Q: With TIEGVITRERMQLPTPGDSP as the substance, how does the growth estimate read?
A: < -0.25

Q: For TIEILTLQVLCTVSRIVRRG, which growth estimate is on record?
A: < -0.25

Q: For TIESSVRPSASDAITANSTS, which growth estimate is on record?
A: < -0.25

Q: With TIFGQRDSSVVTELRRVVQP as the substance, how does the growth estimate read?
A: -0.245

Q: For TIFLYVEATRVEAQGALIPS, which growth estimate is on record?
A: < -0.25

Q: For TIGCSVKQTRAGQLADVGCG, which growth estimate is on record?
A: < -0.25

Q: TIGVEGHAFHTRLTGVFLLT was tested. Which growth estimate did it give?
A: < -0.25

Q: TIHEVSG was tested. Which growth estimate did it give?
A: < -0.25

Q: Which growth estimate does the source give for TIKRRSESACRLIDAG here?
A: < -0.25

Q: Which growth estimate does the source give for TILCLTVKRLTAPSCYSHE here?
A: < -0.25

Q: For TILKGGGLP, which growth estimate is on record?
A: < -0.25

Q: TILRI was tested. Which growth estimate did it give?
A: < -0.25

Q: TILRYSLSRPVSLFRTDPAR was tested. Which growth estimate did it give?
A: < -0.25

Q: Which growth estimate does the source give for TIMYGYPIVLFYSLRERS here?
A: < -0.25

Q: How did the growth estimate turn out when TIN was run?
A: < -0.25

Q: For TIPSTI, which growth estimate is on record?
A: < -0.25

Q: With TIQGLGKVLFLPKVVSTQPL as the substance, how does the growth estimate read?
A: -0.248

Q: For TIRFKNGHGRVPRYMGRKLW, which growth estimate is on record?
A: -0.0781

Q: How did the growth estimate turn out when TIRVSHPFTGAQRSGCWHYR was run?
A: < -0.25

Q: Which growth estimate does the source give for TISRELEKHTGIRYFSY here?
A: -0.25

Q: For TISY, which growth estimate is on record?
A: < -0.25

Q: TITAWRAWILLPTVVRVNDA was tested. Which growth estimate did it give?
A: < -0.25

Q: For TITCRESGFLSGATSTVIRS, which growth estimate is on record?
A: < -0.25

Q: With TIVCTGITQTLFNQGEEC as the substance, how does the growth estimate read?
A: -0.19

Q: How did the growth estimate turn out when TIVEDIRCATGLLLIFSGVR was run?
A: < -0.25

Q: TIVFEFLEYYGLRLMQTLM was tested. Which growth estimate did it give?
A: < -0.25

Q: With TIVSCAACIHV as the substance, how does the growth estimate read?
A: < -0.25

Q: Which growth estimate does the source give for TIYRRCTGPHGCA here?
A: < -0.25

Q: Which growth estimate does the source give for TIYWTC here?
A: < -0.25

Q: Which growth estimate does the source give for TKAP here?
A: < -0.25
